Publication PMC2757917
These are yes or no findings as the source states them, for the method shown. For some assays here: In cells and extracts the contact can be indirect. Some binding calls cover weakened binding; strength is not graded here.

The chains behind the UniProt entries cited, without tags or fusion partners. Where a name states a change or a piece, a line headed by the entry shows the natural chain unless it says otherwise.
UniProt O43186: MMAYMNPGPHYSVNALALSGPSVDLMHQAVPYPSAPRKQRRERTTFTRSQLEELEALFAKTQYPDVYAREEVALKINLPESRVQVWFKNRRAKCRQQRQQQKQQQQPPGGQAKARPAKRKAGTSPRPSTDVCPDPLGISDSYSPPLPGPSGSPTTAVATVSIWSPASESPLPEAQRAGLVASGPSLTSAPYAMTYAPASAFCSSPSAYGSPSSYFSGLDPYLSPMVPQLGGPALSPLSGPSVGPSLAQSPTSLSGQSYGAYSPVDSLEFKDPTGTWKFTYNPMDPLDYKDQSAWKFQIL
UniProt Q9Y5X4: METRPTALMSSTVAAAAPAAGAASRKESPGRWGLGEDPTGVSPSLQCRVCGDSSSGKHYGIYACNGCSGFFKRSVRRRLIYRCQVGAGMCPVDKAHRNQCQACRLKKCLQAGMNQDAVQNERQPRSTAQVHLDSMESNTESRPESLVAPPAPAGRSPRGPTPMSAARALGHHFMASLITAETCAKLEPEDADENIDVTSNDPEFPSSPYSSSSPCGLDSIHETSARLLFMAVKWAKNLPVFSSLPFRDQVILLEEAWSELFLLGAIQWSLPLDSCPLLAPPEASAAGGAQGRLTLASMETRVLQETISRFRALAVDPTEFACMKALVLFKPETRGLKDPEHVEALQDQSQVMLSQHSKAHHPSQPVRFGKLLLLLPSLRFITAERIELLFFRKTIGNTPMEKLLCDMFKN

What was measured:
[1] = target: Crx-RLuc (human CRX fused in N-terminus of RLuc) (human) (UniProt O43186); test: FRET or BRET; BRET^2 in living HEK293T cells 48 h after transient transfection; RLuc fusion as donor, GFP^2 fusion as acceptor; 5 uM Coelenterazine h/DeepBlueC, emission 515 nm/410 nm; fixed amounts of vectors and series with increasing GFP^2 vector
[2] = target: NR2E3-RLuc (Renilla luciferase fused to the C-terminus of NR2E3) (human) (UniProt Q9Y5X4); test: as above
[3] = target: RLuc-Crx (CRX located in the C-terminus of the renilla) (human) (UniProt O43186); test: as above
RLuc-NR2E3 (human) = RLuc-NR2E3 (human) (UniProt Q9Y5X4); test: as above
[4] = target: human NR2E3 wild-type protein (pcDNA3.1/HisC-hNR2E3) (human) (UniProt Q9Y5X4); test: native gel or EMSA; total protein extracts of transfected HEK293T cells on an 8% PAA-gel under non-denaturing conditions, Western blot with an anti-NR2E3 antibody

Substance	binding [1]	binding [2]	binding [3]	binding (RLuc-NR2E3 (human))	binding [4]
GFP^2-NR2E3 (GFP^2 fused to the N-terminus of NR2E3) (from UniProt Q9Y5X4 1-410)	binds	binds	binds	binds	–
GFP^2-NR2E3 p.G56R (from UniProt Q9Y5X4 1-410)	–	binds	–	–	–
GFP^2-NR2E3 p.R97H (from UniProt Q9Y5X4 1-410)	–	binds	–	–	–
GFP^2-NR2E3 p.R311Q (from UniProt Q9Y5X4 1-410)	–	binds	–	–	–
NR2E3 p.G56R-GFP^2 (from UniProt Q9Y5X4 1-410)	binds	–	–	–	–
NR2E3 p.R311Q-GFP^2 (from UniProt Q9Y5X4 1-410)	binds	–	–	–	–
NR2E3-GFP^2 (from UniProt Q9Y5X4 1-410)	binds	binds	binds	binds	–
human NR2E3 wild-type protein (pcDNA3.1/HisC-hNR2E3) (from UniProt Q9Y5X4 1-410)	–	–	–	–	binds weakly
